These are yes or no findings as the source states them, for the method shown. Some binding calls cover weakened binding; strength is not graded here.
Columns and labels:
[1] = target: T1, PALB2 (partner and localizer of BRCA2) (human) (UniProt Q86YC2); test: USP11 immunoprecipitation from 293T extracts with or without camptothecin, immunoblot
T1 sequence: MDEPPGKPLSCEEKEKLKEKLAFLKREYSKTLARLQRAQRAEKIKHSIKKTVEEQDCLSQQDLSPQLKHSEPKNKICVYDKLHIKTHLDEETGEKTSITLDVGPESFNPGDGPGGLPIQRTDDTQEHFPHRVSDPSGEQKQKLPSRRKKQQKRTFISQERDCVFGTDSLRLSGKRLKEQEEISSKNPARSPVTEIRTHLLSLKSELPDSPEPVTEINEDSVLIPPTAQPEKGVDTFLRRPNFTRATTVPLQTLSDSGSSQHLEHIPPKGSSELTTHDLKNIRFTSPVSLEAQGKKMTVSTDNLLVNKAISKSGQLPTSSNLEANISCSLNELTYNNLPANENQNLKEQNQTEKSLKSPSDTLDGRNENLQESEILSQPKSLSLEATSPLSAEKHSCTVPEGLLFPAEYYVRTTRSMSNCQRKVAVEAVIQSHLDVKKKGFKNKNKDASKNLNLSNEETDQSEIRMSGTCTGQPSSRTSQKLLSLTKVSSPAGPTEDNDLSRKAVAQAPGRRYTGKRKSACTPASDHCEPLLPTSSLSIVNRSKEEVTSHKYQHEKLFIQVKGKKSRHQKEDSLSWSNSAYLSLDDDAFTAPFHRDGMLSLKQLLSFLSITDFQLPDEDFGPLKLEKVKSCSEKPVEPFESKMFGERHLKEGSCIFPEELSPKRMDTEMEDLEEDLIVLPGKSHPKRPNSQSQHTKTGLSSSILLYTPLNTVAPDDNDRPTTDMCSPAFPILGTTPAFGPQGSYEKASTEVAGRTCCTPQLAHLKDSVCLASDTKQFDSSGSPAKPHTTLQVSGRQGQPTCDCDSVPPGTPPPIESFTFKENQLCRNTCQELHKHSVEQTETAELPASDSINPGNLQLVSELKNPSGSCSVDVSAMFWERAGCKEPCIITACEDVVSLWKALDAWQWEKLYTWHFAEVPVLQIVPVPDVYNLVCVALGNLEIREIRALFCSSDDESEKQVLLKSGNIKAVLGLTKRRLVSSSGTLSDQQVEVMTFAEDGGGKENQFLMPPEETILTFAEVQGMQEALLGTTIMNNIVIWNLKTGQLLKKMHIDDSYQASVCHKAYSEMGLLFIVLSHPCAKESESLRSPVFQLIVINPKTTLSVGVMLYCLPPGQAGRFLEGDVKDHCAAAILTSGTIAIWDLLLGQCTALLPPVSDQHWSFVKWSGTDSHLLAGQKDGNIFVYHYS

Sequences of proteins named here, by UniProt entry; tags and fusion partners are left off. A change or cut given only in a name is not applied to a line headed by its entry.
UniProt P51784: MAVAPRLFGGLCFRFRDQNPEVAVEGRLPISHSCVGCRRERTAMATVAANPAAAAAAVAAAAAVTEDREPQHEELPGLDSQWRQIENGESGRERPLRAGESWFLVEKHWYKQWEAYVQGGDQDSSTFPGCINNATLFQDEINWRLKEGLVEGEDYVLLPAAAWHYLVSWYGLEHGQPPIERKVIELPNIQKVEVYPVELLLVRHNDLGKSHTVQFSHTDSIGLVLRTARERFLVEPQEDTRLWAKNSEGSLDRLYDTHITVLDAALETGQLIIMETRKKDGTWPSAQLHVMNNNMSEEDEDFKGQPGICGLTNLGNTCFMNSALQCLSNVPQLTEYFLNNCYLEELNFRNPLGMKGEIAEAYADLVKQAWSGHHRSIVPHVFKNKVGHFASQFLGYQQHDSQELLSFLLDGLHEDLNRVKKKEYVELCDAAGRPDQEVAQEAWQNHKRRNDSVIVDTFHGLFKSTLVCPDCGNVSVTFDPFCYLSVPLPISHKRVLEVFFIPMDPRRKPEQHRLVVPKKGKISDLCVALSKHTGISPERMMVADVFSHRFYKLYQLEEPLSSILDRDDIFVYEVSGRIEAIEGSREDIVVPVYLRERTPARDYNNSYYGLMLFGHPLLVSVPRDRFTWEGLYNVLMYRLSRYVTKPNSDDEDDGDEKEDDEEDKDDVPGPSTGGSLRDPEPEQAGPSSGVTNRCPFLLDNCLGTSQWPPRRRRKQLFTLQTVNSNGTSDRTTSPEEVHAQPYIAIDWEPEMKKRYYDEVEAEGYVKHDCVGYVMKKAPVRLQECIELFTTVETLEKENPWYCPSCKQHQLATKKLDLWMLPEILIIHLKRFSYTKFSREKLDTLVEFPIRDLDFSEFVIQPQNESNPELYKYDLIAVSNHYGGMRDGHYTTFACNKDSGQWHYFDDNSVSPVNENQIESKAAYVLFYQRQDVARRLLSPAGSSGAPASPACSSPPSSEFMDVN

[2] = target: T1, PALB2 (partner and localizer of BRCA2) (human); test: PALB2 immunoprecipitation from 293T extracts synchronized in G1 or S, immunoblot
[3] = target: T2, DCAF10 (DDB1- and CUL4-associated factor 10) (human) (UniProt Q5QP82); test: Flag immunoprecipitation from HEK293 cell extracts, immunoblot with DCAF10 antibody
T2 sequence: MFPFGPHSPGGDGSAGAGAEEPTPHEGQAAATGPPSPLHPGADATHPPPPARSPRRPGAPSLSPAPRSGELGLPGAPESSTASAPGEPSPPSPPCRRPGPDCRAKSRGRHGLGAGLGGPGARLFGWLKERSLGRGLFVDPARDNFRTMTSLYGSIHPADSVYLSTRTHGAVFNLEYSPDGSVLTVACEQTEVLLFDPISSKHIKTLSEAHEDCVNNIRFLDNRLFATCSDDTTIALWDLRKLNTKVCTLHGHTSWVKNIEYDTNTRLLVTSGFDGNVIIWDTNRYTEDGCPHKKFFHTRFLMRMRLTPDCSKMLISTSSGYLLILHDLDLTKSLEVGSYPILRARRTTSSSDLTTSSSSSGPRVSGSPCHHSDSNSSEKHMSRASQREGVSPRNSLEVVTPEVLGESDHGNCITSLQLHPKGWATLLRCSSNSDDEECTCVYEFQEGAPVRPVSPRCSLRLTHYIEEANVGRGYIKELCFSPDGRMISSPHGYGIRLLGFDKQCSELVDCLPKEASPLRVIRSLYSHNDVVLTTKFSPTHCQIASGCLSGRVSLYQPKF

[4] = target: T2, DCAF10 (DDB1- and CUL4-associated factor 10) (human); test: Flag-USP11 immunoprecipitation from 293 Flp-IN/T-Rex extracts, immunoblot

binding [1] | binding [2] | binding [3] | binding [4] | Substance
binds | binds | – | – | USP11 (ubiquitin carboxyl-terminal hydrolase 11) (from UniProt P51784 1-963) (enzyme)
– | – | binds | binds | Flag-tagged USP11 (from UniProt P51784 1-963) (enzyme)

Source: patent publication US20180073039A1 (SINAI HEALTH SYSTEM, published 2018)
